Article PMC11194501
These are yes or no findings as the source states them, for the method shown. Some results given as binding are weak or reduced against the parent protein; the word gives no strength. Sequences can lack the tags named with a protein.

Amino acid sequences for entries named in this document (tags omitted). A change or cut given only in a name is not applied to a line headed by its entry.
UniProt P02550: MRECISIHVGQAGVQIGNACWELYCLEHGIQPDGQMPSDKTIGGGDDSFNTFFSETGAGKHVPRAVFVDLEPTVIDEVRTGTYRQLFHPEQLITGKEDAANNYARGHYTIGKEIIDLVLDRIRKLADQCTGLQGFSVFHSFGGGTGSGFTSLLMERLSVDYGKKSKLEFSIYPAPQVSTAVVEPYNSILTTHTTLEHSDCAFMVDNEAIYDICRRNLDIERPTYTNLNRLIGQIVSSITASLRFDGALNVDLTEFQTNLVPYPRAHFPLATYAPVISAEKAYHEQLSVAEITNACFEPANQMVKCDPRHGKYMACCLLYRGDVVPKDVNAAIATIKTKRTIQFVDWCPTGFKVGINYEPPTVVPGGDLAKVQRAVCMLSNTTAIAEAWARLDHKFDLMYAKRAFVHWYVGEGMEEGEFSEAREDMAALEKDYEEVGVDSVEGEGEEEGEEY

Target: T1, Cep57S (Cep57 residues 56 to 264 fused to 334 to 433) (human) (UniProt Q86XR8)
T1 sequence: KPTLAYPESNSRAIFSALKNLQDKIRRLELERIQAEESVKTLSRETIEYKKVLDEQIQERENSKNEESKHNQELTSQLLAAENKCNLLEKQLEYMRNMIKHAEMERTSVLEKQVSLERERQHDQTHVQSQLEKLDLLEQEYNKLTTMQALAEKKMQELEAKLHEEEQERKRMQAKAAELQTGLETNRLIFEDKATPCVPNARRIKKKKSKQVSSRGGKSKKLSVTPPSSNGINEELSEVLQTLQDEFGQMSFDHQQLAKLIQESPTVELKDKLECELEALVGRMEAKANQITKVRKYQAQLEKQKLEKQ
Test: pull-down; His-tagged Cep57S held on a Ni-NTA spin column, 0.1 mg α/β-tubulin added, 4 °C; 1X PBS pH 8.0, 1 mM 2-mercaptoethanol, 20 mM imidazole, 0.1% Triton X100, 10% glycerol; eluted with 400 mM imidazole, SDS-PAGE; both purified

binding: binds
Substance: α/β-tubulin (from UniProt P02550 1-451; P02554 1-445) (complex)
